Measured values as given in PMC5443517.
These are yes or no findings as the source states them, for the method shown. Binding seen in cells or lysates may run through a third protein. Some binding calls cover weakened binding; strength is not graded here.

The chains behind the UniProt entries cited, without tags or fusion partners. Where a name states a change or a piece, a line headed by the entry shows the natural chain unless it says otherwise.
UniProt P20700: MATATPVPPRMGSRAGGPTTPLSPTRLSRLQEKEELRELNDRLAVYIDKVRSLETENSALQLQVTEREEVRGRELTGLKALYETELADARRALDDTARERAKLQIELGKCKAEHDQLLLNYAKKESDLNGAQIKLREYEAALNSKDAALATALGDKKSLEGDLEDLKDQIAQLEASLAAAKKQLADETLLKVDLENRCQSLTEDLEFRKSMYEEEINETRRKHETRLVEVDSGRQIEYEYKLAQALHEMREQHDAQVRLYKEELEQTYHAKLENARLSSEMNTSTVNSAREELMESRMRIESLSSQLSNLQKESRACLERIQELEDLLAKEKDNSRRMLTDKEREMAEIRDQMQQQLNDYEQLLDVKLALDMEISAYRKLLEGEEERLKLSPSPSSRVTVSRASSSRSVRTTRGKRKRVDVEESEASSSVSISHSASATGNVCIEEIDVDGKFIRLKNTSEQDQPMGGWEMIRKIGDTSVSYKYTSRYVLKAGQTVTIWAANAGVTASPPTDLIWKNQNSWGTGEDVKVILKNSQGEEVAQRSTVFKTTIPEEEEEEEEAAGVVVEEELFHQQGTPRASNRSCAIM
UniProt P14859: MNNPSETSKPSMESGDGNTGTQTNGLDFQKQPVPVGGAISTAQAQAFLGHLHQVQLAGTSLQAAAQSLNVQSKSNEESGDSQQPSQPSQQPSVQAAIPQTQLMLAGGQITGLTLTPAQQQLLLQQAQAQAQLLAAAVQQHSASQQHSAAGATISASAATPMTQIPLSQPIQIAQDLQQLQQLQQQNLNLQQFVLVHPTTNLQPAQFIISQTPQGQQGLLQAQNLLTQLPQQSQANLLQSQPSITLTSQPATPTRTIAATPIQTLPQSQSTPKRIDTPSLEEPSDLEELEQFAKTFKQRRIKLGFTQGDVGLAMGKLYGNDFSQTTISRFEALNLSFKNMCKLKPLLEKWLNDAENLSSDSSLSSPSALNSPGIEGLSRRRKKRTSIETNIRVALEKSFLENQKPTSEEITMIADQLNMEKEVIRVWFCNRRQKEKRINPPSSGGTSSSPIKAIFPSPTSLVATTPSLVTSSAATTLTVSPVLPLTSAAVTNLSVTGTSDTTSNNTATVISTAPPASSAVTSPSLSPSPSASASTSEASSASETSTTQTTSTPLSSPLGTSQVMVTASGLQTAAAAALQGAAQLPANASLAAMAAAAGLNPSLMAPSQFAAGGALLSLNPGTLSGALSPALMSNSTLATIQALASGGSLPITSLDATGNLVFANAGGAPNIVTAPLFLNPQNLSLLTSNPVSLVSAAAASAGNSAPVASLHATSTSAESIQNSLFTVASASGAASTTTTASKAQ

How the values were obtained:
GFP-lamin B1 S391A/S393A = GFP-lamin B1 S391A/S393A (UniProt P20700); test: co-IP; anti-GFP antibody on Protein G Dynabeads, lysates of HeLa cells transfected with GFP-lamin B1 mutants 24 h before MMS treatment; control or MMS; blot for endogenous Oct-1
GFP-lamin B1 S391E/S393E = GFP-lamin B1 S391E/S393E (UniProt P20700); test: as above
GFP-lamin B1 S508A = GFP-lamin B1 S508A (UniProt P20700); test: as above
GFP-lamin B1 S508E = GFP-lamin B1 S508E (UniProt P20700); test: as above
GFP-lamin B1 T575A = GFP-lamin B1 T575A (UniProt P20700); test: as above
GFP-lamin B1 T575E = GFP-lamin B1 T575E (UniProt P20700); test: as above
[1] = biological target: lamin B1 (human (endogenous in HeLa)) (UniProt P20700); test: co-IP; anti-lamin B1 antibody on Protein G Dynabeads, overnight at 4°C, NP-40 lysates of HeLa cells; control or MMS (100 ug/ml, 2 h and 4 h), with or without pre-treatment with JNK inhibitor SP6000125 or ERK inhibitor UO126; blot for Oct-1; in some cases cells were cross-linked with DSS or BS3 and lysed in RIPA buffer

## Oct-1 (from UniProt P14859 1-743)
GFP-lamin B1 S391A/S393A
  binding: binds
GFP-lamin B1 S391E/S393E
  binding: binds
GFP-lamin B1 S508A
  binding: binds
GFP-lamin B1 S508E
  binding: binds
GFP-lamin B1 T575A
  binding: binds
GFP-lamin B1 T575E
  binding: binds weakly
[1]
  binding: binds
